Microarray screen: hit calls

Data from the ROBIN nucleic acid binder screens, doi:10.1002/anie.202211358.

Targets, with sequences 5′ to 3′:
PreQ1: PreQ1 riboswitch RNA pseudoknot, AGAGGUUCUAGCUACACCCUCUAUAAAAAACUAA. From B. subtilis. About 170 hits among about 24,000 compounds.
SAM-II: SAM-II riboswitch RNA pseudoknot, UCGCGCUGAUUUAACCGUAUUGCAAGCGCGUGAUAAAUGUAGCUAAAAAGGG. About 200 hits among about 21,000 compounds.
TPP: TPP riboswitch RNA three-way junction, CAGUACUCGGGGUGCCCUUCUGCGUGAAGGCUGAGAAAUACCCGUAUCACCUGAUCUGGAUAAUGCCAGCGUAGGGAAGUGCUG. About 160 hits among about 24,000 compounds.

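Each compound is printed as two spots on a slide made to bind it covalently, so it has no test concentration; the read-out is fluorescence of the bound, labelled oligonucleotide. For the PreQ1, TPP and SAM-II riboswitches the laboratory earlier reported (doi:10.1038/s41467-019-09493-3) 1 µM RNA, 2 h, and a rule that included a mean Z-score above 3 (spot signal-to-noise against the whole library), a score well above that on a control array, and duplicate spots agreeing (coefficient of variation under 100). The data file gives only the calls; its cut-offs may differ, and compounds hitting several targets are kept. These are primary screening calls, not affinities; a compound without a hit may have attached poorly or may still bind in solution.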
Key: active = hit, inactive = tested without a hit.
The compounds are a random part of those screened.
A target missing from an entry has no call listed here.

Cc1ccc2occ(C3Nc4ccccc4NC4=C3C(=O)CC(C)(C)C4)c(=O)c2c1 (stereo not drawn) was scored PreQ1: inactive; SAM-II: inactive; TPP: inactive. For N[C@@H](Cc1cc(I)c(Oc2cc(I)c(O)c(I)c2)c(I)c1)C(=O)O the calls were PreQ1: inactive; SAM-II: inactive; TPP: inactive. CCOC(=O)c1cnc(C)nc1Nc1ccccc1OCC was scored PreQ1: inactive; TPP: inactive. With CCOC(=O)NC[C@@H]1CCN(C(=O)c2nc3ccc(F)cc3[nH]2)C[C@H]1O the screen gave PreQ1: inactive; SAM-II: inactive; TPP: inactive. With N#Cc1nccnc1N1CCN(C2CCC3(CCNCC3)CC2)CC1 the screen gave PreQ1: inactive; SAM-II: inactive; TPP: inactive. CCSc1ncc(CN2CC[C@@H](NC(=O)c3ccncc3)[C@H](O)C2)cn1 was scored PreQ1: inactive; SAM-II: inactive; TPP: inactive. For Nc1nonc1C(=O)N1CCN(C(=O)c2ccc(Cl)cc2)CC1 the calls were PreQ1: inactive; TPP: inactive. For OCc1nc2ccccc2n1Cc1cccc(Br)c1 the calls were PreQ1: inactive; SAM-II: inactive; TPP: inactive.

Calls for CCS(=O)(=O)Nc1c(NC)c2ccccc2oc1=O are PreQ1: inactive; SAM-II: inactive; TPP: inactive. COCCCNc1c(-c2ccc(C)cc2)c(=O)c1=O was scored PreQ1: inactive; TPP: inactive. For COc1cc2c(cc1OC)C(N[C@@H]1CNC[C@@H]1C(C)(C)O)=NC(=C1C=C(F)C=CC1=O)N2 the calls were PreQ1: inactive; SAM-II: inactive; TPP: inactive. Calls for O=C1c2ccccc2C(=O)c2c(Nc3ccc(CCO)cc3)ccc(O)c21 are PreQ1: inactive; SAM-II: inactive; TPP: inactive. For CC(C(=O)N1CCn2nc(CCC(=O)NCCO)cc2C1)n1cccc1 (stereo not drawn) the calls were PreQ1: inactive; SAM-II: inactive; TPP: inactive. With CCOC(=O)Nc1ccc2c(c1)N(C(=O)CN1CCN(CCO)CC1)c1ccccc1CC2 the screen gave PreQ1: inactive; SAM-II: inactive; TPP: inactive. For CCOC(=O)c1cnc2c(C)cccc2c1NCc1cccnc1 the calls were PreQ1: active; SAM-II: inactive; TPP: inactive. With O=C(O)CCc1cc2n(n1)CCN(C(=O)c1ccccc1C1CCNC1)C2 (stereo not drawn) the screen gave PreQ1: inactive; SAM-II: inactive; TPP: inactive.

With Nc1ccccc1CN1CCCCCC1 the screen gave PreQ1: inactive; SAM-II: inactive; TPP: inactive. With CC(C)(CO)NCc1cc(Br)ccc1OCc1ccccc1 the screen gave PreQ1: inactive; SAM-II: inactive; TPP: inactive. For Cc1nc(N2CCC(N[C@H]3Cc4ccccc4[C@@H]3N)CC2)c2ccsc2n1 the calls were PreQ1: inactive; SAM-II: inactive; TPP: inactive. Calls for Cc1cc(NC(=O)CNCc2cc(-c3cccnc3)no2)ccc1Cl are PreQ1: inactive; SAM-II: inactive; TPP: inactive. Calls for C=C1C(=O)OC2/C=C(/C)CC/C=C(\C)CCC12 (stereo not drawn) are PreQ1: inactive; SAM-II: inactive; TPP: inactive. With Cc1cccnc1C(NCC(=O)NC1CCCCCCC1)C1CC1 (stereo not drawn) the screen gave PreQ1: inactive; SAM-II: inactive; TPP: inactive. For CC(Cn1cccn1)NCc1cnn(-c2cccc(F)c2)c1 (stereo not drawn) the calls were PreQ1: inactive; SAM-II: inactive; TPP: inactive. For CNCc1ccc(-c2cccc(C(F)(F)F)c2)o1 the calls were PreQ1: inactive; TPP: inactive.

For O=C(c1cnc2ccccn2c1=O)N1Cc2ccccc2C(O)C1 (stereo not drawn) the calls were PreQ1: inactive; SAM-II: inactive; TPP: inactive. C#CC(C)(C)NCC(C)=O was scored PreQ1: inactive; SAM-II: inactive; TPP: inactive. With CCOC(=O)CNC1CC(=O)N(c2ccc(Br)cc2)C1=O (stereo not drawn) the screen gave PreQ1: inactive; SAM-II: inactive; TPP: inactive. Calls for Nc1ncccc1CN1CCC2(CC1)CN(CCOc1ccccc1)C(=O)O2 are PreQ1: inactive; SAM-II: inactive; TPP: inactive. Cn1c(=O)c2c(nc3n(CCCO)c(-c4cccs4)cn23)n(C)c1=O was scored PreQ1: inactive; SAM-II: inactive; TPP: inactive. With Cc1cc(NC2CCCC2)n2ncc(-c3ccc(Cl)cc3)c2n1 the screen gave PreQ1: inactive; TPP: inactive.

For reference, 3 entries once more:

SMILES,PreQ1,SAM-II,TPP
C#CC(C)(C)NCC(C)=O,inactive,inactive,inactive
Cc1ccc2occ(C3Nc4ccccc4NC4=C3C(=O)CC(C)(C)C4)c(=O)c2c1 (stereo not drawn),inactive,inactive,inactive
O=C(O)CCc1cc2n(n1)CCN(C(=O)c1ccccc1C1CCNC1)C2 (stereo not drawn),inactive,inactive,inactive